These are yes or no findings as the source states them, for the method shown. In cells and extracts the contact can be indirect. Some binding calls cover weakened binding; strength is not graded here.
Target: Lamin A (human (endogenous in PDLSCs)) (UniProt P02545)
Test: co-IP; endogenous proteins from control and compressive-force-stressed PDLSCs; lysis buffer with 0.5% NP40, lysate pre-cleared with protein A beads, precipitated with a specific antibody and protein A beads, extensive washing, western blot; which protein was precipitated not given

Amino acid sequences for entries named in this document (tags omitted). Residues count along the entry.
UniProt P02545, residues 1-646: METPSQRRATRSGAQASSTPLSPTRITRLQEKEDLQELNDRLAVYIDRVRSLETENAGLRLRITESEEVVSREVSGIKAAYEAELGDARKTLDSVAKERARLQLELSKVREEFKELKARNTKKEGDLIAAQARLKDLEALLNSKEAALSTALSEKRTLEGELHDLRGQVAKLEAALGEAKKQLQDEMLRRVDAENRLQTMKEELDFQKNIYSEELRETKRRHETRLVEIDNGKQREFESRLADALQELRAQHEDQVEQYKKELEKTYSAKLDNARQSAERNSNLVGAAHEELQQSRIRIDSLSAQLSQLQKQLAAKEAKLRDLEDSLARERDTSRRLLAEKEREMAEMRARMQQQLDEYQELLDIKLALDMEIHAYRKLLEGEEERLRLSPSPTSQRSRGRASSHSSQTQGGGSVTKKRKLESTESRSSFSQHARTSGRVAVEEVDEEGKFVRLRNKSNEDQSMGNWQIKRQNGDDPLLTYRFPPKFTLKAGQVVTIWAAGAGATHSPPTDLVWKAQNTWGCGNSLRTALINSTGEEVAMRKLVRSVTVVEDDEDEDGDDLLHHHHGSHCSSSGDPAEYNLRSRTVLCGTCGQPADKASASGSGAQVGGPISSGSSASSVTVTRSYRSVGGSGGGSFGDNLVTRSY

binding: binds
B1: retinoblastoma protein (RB) (protein, UniProt P06400 1-928)
chain: MPPKTPRKTAATAAAAAAEPPAPPPPPPPEEDPEQDSGPEDLPLVRLEFEETEEPDFTALCQKLKIPDHVRERAWLTWEKVSSVDGVLGGYIQKKKELWGICIFIAAVDLDEMSFTFTELQKNIEISVHKFFNLLKEIDTSTKVDNAMSRLLKKYDVLFALFSKLERTCELIYLTQPSSSISTEINSALVLKVSWITFLLAKGEVLQMEDDLVISFQLMLCVLDYFIKLSPPMLLKEPYKTAVIPINGSPRTPRRGQNRSARIAKQLENDTRIIEVLCKEHECNIDEVKNVYFKNFIPFMNSLGLVTSNGLPEVENLSKRYEEIYLKNKDLDARLFLDHDKTLQTDSIDSFETQRTPRKSNLDEEVNVIPPHTPVRTVMNTIQQLMMILNSASDQPSENLISYFNNCTVNPKESILKRVKDIGYIFKEKFAKAVGQGCVEIGSQRYKLGVRLYYRVMESMLKSEEERLSIQNFSKLLNDNIFHMSLLACALEVVMATYSRSTSQNLDSGTDLSFPWILNVLNLKAFDFYKVIESFIKAEGNLTREMIKHLERCEHRIMESLAWLSDSPLFDLIKQSKDREGPTDHLESACPLNLPLQNNHTAADMYLSPVRSPKKKGSTTRVNSTANAETQATSAFQTQKPLKSTSLSLFYKKVYRLAYLRLNTLCERLLSEHPELEHIIWTLFQHTLQNEYELMRDRHLDQIMMCSMYGICKVKNIDLKFKIIVTAYKDLPHAVQETFKRVLIKEEEYDSIIVFYNSVFMQRLKTNILQYASTRPPTLSPIPHIPRSPYKFPSSPLRIPGGNIYISPLKSPYKISEGLPTPTKMTPRSRILVSIGESFGTSEKFQKINQMVCNSDRVLKRSAEGSNPPKPLKKLRFDIEGSDEADGSKHLPGESKFQQKLAEMTSTRTRMQKQKMNDSMDTSNKEEK

— publication PMC7493952
